Reference: article PMC10393996
No constants are given. Whether binding was seen depends on the method and setting. Binding seen in cells or lysates may run through a third protein. Some binding calls cover weakened binding; strength is not graded here. One block for each substance: values may come before it.

Chains of the proteins cited; added tags and fusions are not shown.
UniProt P06401: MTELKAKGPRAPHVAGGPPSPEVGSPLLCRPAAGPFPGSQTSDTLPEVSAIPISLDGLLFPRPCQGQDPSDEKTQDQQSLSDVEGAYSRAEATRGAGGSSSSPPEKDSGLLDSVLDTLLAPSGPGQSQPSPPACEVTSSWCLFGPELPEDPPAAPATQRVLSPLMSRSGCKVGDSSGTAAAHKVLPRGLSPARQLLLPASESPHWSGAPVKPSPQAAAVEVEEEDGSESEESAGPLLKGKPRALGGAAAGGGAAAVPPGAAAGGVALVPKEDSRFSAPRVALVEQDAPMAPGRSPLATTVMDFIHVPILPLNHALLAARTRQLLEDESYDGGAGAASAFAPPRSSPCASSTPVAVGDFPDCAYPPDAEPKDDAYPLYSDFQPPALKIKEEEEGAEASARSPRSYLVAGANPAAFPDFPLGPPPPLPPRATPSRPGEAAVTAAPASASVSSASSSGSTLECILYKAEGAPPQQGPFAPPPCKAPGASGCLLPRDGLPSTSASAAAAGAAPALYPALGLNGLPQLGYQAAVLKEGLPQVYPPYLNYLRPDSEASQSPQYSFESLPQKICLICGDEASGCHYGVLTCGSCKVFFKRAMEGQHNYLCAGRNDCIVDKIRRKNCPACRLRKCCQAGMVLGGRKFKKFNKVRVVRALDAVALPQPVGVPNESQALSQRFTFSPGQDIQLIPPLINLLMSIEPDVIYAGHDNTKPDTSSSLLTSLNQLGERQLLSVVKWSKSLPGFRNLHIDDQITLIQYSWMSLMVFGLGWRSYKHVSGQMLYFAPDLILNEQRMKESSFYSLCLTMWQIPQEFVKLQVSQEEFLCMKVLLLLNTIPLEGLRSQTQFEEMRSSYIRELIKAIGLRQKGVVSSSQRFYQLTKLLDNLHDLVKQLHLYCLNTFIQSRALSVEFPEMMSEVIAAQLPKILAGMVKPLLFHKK
UniProt Q62318: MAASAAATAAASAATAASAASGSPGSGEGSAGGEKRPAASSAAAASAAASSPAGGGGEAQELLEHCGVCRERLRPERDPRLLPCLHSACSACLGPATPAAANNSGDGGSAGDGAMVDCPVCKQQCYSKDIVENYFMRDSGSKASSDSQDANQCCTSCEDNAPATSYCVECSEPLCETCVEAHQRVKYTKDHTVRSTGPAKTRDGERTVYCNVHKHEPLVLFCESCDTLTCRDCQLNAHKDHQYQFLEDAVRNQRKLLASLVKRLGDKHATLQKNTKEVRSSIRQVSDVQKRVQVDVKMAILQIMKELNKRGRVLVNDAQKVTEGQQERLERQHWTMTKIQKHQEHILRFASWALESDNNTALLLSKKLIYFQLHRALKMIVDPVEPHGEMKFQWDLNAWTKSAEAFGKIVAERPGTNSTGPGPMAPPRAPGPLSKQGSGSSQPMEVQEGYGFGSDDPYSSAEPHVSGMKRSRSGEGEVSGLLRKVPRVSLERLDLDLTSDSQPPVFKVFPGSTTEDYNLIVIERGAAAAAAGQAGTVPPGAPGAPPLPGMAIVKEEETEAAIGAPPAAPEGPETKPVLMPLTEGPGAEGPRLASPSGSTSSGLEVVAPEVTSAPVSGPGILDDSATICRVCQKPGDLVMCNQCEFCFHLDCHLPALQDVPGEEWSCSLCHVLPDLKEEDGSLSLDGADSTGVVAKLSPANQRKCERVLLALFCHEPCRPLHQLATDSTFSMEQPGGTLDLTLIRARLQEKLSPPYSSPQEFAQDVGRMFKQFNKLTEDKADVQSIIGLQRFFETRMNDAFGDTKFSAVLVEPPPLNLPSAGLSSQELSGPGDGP
UniProt Q00175: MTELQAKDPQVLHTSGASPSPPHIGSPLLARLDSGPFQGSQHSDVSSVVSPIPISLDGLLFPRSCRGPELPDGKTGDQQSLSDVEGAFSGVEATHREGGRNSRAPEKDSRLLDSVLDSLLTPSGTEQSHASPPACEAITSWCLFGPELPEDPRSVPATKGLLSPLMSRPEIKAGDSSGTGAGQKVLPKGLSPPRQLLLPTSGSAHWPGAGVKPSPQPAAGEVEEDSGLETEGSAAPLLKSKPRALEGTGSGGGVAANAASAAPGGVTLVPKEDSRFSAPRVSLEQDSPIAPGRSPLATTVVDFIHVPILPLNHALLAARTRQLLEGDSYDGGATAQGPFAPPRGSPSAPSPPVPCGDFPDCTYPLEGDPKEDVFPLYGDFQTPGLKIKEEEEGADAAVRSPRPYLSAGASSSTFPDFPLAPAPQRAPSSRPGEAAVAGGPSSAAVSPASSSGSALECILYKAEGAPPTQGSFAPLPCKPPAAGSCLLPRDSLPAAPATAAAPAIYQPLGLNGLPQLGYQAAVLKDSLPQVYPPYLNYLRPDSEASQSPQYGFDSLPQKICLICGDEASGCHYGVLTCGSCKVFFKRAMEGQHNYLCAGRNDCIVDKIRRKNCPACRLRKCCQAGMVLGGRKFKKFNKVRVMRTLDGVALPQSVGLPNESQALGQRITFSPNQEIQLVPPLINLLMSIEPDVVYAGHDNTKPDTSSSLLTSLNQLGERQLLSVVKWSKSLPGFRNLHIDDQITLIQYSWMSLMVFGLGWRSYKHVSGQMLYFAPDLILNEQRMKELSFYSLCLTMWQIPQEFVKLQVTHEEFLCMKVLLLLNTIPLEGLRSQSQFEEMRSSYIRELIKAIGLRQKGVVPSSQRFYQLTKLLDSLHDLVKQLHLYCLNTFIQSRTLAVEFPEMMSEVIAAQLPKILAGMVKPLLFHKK
UniProt Q13263: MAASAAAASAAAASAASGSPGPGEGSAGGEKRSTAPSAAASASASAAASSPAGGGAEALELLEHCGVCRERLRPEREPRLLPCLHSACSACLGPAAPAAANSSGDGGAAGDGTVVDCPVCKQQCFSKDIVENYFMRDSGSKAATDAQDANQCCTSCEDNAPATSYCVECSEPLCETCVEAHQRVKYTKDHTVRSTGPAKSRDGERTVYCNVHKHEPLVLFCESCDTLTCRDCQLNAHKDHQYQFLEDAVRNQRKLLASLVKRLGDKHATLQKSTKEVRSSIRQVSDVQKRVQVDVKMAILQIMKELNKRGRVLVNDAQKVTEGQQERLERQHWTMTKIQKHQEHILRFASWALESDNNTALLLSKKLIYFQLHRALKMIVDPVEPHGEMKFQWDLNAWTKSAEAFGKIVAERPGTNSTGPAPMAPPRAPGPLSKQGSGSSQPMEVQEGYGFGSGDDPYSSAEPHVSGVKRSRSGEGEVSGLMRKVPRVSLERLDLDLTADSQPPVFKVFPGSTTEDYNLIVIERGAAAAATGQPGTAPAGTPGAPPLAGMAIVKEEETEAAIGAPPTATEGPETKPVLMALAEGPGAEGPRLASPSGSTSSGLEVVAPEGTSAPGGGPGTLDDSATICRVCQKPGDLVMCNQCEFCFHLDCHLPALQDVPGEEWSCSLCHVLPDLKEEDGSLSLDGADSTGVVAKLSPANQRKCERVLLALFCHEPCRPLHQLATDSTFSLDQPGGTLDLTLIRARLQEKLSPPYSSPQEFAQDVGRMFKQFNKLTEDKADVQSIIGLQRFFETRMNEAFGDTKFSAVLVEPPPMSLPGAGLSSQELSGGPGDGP
UniProt P19785: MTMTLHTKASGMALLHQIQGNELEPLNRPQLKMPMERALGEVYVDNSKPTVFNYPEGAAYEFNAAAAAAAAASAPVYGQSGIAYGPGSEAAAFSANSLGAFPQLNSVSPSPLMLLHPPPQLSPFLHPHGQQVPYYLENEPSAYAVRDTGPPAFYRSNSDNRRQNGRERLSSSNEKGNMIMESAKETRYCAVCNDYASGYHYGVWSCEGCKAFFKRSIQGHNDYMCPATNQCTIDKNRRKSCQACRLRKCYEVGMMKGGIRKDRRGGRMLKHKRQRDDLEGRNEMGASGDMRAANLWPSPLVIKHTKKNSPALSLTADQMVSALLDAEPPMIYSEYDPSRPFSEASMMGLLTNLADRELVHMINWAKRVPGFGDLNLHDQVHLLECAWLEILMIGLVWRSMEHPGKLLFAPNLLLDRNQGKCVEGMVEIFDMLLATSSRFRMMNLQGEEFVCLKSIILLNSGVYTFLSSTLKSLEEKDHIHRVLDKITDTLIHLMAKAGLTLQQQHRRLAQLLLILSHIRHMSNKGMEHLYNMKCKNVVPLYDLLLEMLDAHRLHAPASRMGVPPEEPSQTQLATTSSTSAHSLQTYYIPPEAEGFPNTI

Experiments:
[1] = target: HA tagged human PGR-B (human) (UniProt P06401); test: co-IP; proteins from HeLa cells overexpressing HA tagged PGR-B and GFP tagged TRIM28; antibody at 4 °C overnight, Dynabeads Protein A, western blot
[2] = target: progesterone receptor (PR), endogenous in primary human endometrial stromal cells (human (endogenous in primary HESCs)) (UniProt P06401); test: co-IP; proteins from decidual primary HESCs, PR antibody or rabbit IgG at 4 °C overnight, Dynabeads Protein A, western blot
[3] = target: progesterone receptor (PR), endogenous in primary human endometrial stromal cells (human (endogenous in primary HESCs)) (UniProt P06401); test: proximity ligation; Duolink Proximity Ligation Assay with PR and TRIM28 antibodies in siNT or siTRIM28 treated pre-decidual and decidual HESCs; confocal microscopy
[4] = target: TRIM28, endogenous in mouse uterus (mouse (endogenous in uterus)) (UniProt Q62318); test: co-IP; proteins from D3.5 mouse uterus; antibody or rabbit IgG at 4 °C overnight, Dynabeads Protein A, western blot
[5] = target: progesterone receptor (PR), endogenous in mouse uterus (mouse (endogenous in uterus)) (UniProt Q00175); test: as above

- binding [1]: binds
Substance: GFP tagged TRIM28 (from UniProt Q13263 1-835)

- binding [2]: binds
- binding [3]: binds
Substance: TRIM28 (Tripartite motif containing 28), endogenous in primary human endometrial stromal cells (from UniProt Q13263 1-835)

- binding [4]: binds
- binding [5]: binds
Substance: estrogen receptor α (ERα), endogenous in mouse uterus (from UniProt P19785 1-599)
